These results are taken from paper doi:10.1101/434571.

The chains behind the UniProt entries cited, without tags or fusion partners.
UniProt Q3LS21: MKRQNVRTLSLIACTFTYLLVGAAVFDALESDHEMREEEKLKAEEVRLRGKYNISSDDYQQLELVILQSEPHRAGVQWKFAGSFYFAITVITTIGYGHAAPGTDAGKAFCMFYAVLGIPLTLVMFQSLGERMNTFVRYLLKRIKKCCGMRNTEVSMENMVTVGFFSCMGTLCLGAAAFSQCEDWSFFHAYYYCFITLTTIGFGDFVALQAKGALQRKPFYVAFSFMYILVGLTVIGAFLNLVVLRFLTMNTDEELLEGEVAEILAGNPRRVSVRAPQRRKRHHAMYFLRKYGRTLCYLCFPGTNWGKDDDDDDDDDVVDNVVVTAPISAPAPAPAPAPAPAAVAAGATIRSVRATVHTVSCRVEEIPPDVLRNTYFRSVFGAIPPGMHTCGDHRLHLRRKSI

The target in assay [1] is T1, Flag-tagged rat KCC2 (rat) (UniProt Q63633).
T1 sequence: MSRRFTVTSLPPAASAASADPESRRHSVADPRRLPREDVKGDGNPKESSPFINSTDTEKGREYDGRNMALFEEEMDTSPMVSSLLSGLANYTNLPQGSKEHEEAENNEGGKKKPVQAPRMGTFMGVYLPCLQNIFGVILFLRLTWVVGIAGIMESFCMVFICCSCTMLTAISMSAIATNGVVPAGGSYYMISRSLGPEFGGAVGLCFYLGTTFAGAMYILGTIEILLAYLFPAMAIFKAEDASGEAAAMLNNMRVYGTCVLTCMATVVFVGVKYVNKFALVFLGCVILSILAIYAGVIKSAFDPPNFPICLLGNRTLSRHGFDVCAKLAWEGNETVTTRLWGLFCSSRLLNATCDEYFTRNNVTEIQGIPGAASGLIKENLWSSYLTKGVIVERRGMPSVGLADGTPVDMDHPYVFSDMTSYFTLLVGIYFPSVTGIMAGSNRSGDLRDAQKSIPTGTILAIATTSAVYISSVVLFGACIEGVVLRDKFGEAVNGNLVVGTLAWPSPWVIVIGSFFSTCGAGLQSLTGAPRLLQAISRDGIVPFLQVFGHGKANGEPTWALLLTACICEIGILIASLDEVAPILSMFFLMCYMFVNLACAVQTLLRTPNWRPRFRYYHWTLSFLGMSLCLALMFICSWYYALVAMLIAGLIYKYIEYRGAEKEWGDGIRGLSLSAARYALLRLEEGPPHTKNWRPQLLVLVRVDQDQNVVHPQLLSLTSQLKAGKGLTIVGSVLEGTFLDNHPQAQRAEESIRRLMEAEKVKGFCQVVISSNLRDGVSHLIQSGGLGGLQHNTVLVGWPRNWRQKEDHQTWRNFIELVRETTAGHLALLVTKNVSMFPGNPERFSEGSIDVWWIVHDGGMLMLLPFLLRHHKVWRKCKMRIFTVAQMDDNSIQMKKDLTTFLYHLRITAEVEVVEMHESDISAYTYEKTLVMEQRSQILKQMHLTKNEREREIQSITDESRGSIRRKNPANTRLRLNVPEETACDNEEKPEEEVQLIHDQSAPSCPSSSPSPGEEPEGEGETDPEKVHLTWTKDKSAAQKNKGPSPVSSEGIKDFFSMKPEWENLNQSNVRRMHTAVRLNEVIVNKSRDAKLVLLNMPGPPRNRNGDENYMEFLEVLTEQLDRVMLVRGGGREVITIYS
Kind of assay: co-IP.

The target of assay [2] is HA-tagged mouse Task3 (mouse) (UniProt Q3LS21). Kind of assay: co-IP.

Results are given in words; binding and its absence hold for the method and conditions named. Binding seen in cells or lysates may run through a third protein. Some results given as binding are weak or reduced against the parent protein; the word gives no strength. Sequences can lack the tags named with a protein.

With “HA-tagged mouse Task3 (from UniProt Q3LS21 1-402)”, the binding entry in assay [1] is reported as “binds”.

B1: Flag-tagged rat KCC2 (protein, UniProt Q63633 1-1139)
chain: T1 sequence
For the molecule B1, the binding entry in assay [2] was “binds”.
